Experimental data published in US20030109675A1 (priority 2001, published 2003).
No constants are given. Whether binding was seen depends on the method and setting. Binding seen in cells or lysates may run through a third protein. Some binding calls cover weakened binding; strength is not graded here.

Biological target: T1, PapA-6H4A (E. coli) (UniProt P04127)
T1 sequence: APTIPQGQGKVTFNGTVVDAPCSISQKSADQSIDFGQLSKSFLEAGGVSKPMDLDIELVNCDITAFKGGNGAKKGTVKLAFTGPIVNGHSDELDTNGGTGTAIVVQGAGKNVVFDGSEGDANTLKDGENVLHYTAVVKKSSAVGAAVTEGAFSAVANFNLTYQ
Experiment: co-purification from periplasm on metal affinity resin

B1: PapD chaperone (protein)
chain: AVSLDRTRAVFDGSEKSMTLDISNDNKQLPYLAQAWIENENQEKIITGPVIATPPVQRLEPGAKSMVRLSTTPDISKLPQDRESLFYFNLREIPPRSEKANVLQIALQTKIKLFYRPAAIKTRPNEVWQDQLILNKVSGGYRIENPTPYYVTVIGLGGSEKQAEEGEFETVMLSPRSEQTVKSANYNTPYLSYINDYGGRPVLSFICNGSRCSVKKEK
In the case of B1, the binding is reported as “binds”.
